# Reference: PMC8537947 (Pharmaceuticals, 2021)
# Experiment: peptide synthesis
# Settings: whole synthesis
substance,measurement,value
NOTA-PEG2-c[CPGRVNleHGLHLGDDEGPC],purity (crude or final not stated),97%
